# PubChem BioAssay AID652243 – Drosophila RNAi Screening Center, 2013
# Assay: 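Fly genes required for human androgen receptor driven transcription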 (primary screen)
# Cells: Drosophila S2R+ cells
# Knock-down reagent: long dsRNA against Drosophila genes
# Timing: 72 h (48 h, then 24 h hormone)
# Treatment: synthetic androgen R1881 at 10 nM for 24 h
# Detection: 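Firefly light from an androgen-responsive reporter and Renilla control light per well, raw and unnormalised, for each of two replicates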
# Direction: firefly reporter light: higher = more light from androgen-responsive reporter; Renilla control light: higher = more constitutive control signal (cell number, transfection)
# Rule for the call: 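Across duplicate plates, a knock-down whose log firefly/Renilla ratio shifted a set fold down or up from the GFP/LacZ control mean was a hit; the downward cut appears as both 1.5 and 3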
# Calls: active = hit: reporter lowered or raised; inactive = no hit
# In all, the deposit lists about 24,000 reagents; this is an unselected part of those with a known target gene and a result. Of all reagents, 246 (1%) got an active call. 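Plates not normalised; calls are printed but the firefly/Renilla ratio behind them is not deposited; fold cut for lowering reported inconsistently.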 Raw values vary from plate to plate and are shown uncorrected. Names joined by + are all predicted targets of the reagent. The record does not give: the amount of reagent.
gene,DRSC id,"firefly reporter light, replicate 1","firefly reporter light, replicate 2","Renilla control light, replicate 1","Renilla control light, replicate 2",Outcome
pyd3 (GeneID 40916),DRSC15459,3.20e5,2.89e5,3.27e6,3.14e6,inactive
pyd3 (GeneID 40916),DRSC21640,7.90e5,7.09e5,2.21e6,1.75e6,inactive
Prp18 (GeneID 42285),DRSC16802,1.14e5,1.13e5,8.38e5,8.49e5,inactive
Unc50 (GeneID 41029),DRSC16561,1.61e5,1.34e5,1.89e6,1.81e6,inactive
Unc50 (GeneID 41029),DRSC28560,2.39e5,3.74e5,6.68e5,1.11e6,inactive
Kap3 (GeneID 32071),DRSC19426,1.44e5,1.16e5,1.28e6,1.12e6,inactive
Kap3 (GeneID 32071),DRSC25680,5.58e5,4.05e5,5.07e5,5.12e5,inactive
Gpo3 (GeneID 34776),DRSC01978,1.27e5,1.60e5,1.47e6,1.56e6,inactive
Nepl17 (GeneID 43408),DRSC14880,2.09e5,2.75e5,2.37e6,3.32e6,inactive
Or33a (GeneID 34601),DRSC03386,2.29e5,1.87e5,1.60e6,1.80e6,inactive
Membrin (GeneID 38614),DRSC10448,1.42e5,1.10e5,1.91e6,2.01e6,inactive
cnn (GeneID 36491),DRSC05422,2.07e5,2.52e5,7.45e5,7.69e5,inactive
cnn (GeneID 36491),DRSC07596,57007,83550,1.73e6,1.73e6,inactive
Dis3 (GeneID 42900),DRSC16034,37761,59490,4.66e5,5.42e5,inactive
geko (GeneID 50263),DRSC10044,2.20e5,1.93e5,2.34e6,2.15e6,inactive
geko (GeneID 50263),DRSC10045,2.43e5,2.66e5,2.74e6,3.88e6,inactive
CG11050 (GeneID 33924),DRSC02125,2.17e5,2.93e5,8.23e5,8.66e5,inactive
CG11050 (GeneID 33924),DRSC23562,7.81e5,1.07e6,9.08e5,9.70e5,inactive
CG32832 (GeneID 318237),DRSC01562,1.64e5,1.98e5,5.31e5,6.19e5,inactive
mr (GeneID 45906),DRSC04332,1.17e6,7.92e5,1.71e6,1.98e6,inactive
mr (GeneID 45906),DRSC22856,7.76e5,1.39e6,7.13e5,1.38e6,inactive
mr (GeneID 45906),DRSC29384,4.28e5,4.72e5,1.05e6,1.05e6,inactive
Brf (GeneID 42087),DRSC14166,2.46e5,2.62e5,3.04e6,3.10e6,inactive
Brf (GeneID 42087),DRSC14167,1.41e5,1.51e5,1.94e6,1.88e6,inactive
Mekk1 (GeneID 42253),DRSC16302,66671,1.07e5,6.28e5,6.14e5,inactive
Mekk1 (GeneID 42253),DRSC16303,2.15e5,2.59e5,3.06e6,3.02e6,inactive
Mekk1 (GeneID 42253),DRSC36752,,,,,inactive
Mekk1 (GeneID 42253),DRSC36753,,,,,inactive

Looked up above.
Result of cnn (GeneID 36491) [DRSC05422] under “firefly reporter light, replicate 1”: 2.07e5
For “Outcome”, Mekk1 (GeneID 42253) [DRSC36752] is entered as inactive
Under “Renilla control light, replicate 1”, Gpo3 (GeneID 34776) [DRSC01978] is entered as 1.47e6
Result of Membrin (GeneID 38614) [DRSC10448] in “Renilla control light, replicate 2”: 2.01e6
mr (GeneID 45906) [DRSC22856], firefly reporter light, replicate 1: 7.76e5

The listing continues:
gene,DRSC id,"firefly reporter light, replicate 1","firefly reporter light, replicate 2","Renilla control light, replicate 1","Renilla control light, replicate 2",Outcome
CG4691 (GeneID 34856),DRSC01950,9.75e5,1.25e6,1.25e6,1.34e6,inactive
CG4691 (GeneID 34856),DRSC27902,7.00e5,4.85e5,2.31e6,1.27e6,inactive
CG5674 (GeneID 35072),DRSC23176,9.84e5,1.01e6,1.41e6,1.12e6,inactive
CG5674 (GeneID 35072),DRSC28320,4.44e5,4.98e5,1.08e6,1.22e6,inactive
Cpr64Aa (GeneID 38508),DRSC08460,2.32e5,2.21e5,2.11e6,1.69e6,inactive
Cpr64Aa (GeneID 38508),DRSC23801,8.06e5,5.58e5,5.35e5,4.59e5,inactive
PICK1 (GeneID 34677),DRSC02936,2.47e5,1.96e5,1.74e6,1.96e6,inactive
Spt-I (GeneID 36448),DRSC06860,4.60e5,2.96e5,3.03e6,2.57e6,inactive
Spt-I (GeneID 36448),DRSC26069,3.37e5,2.35e5,8.96e5,3.24e5,inactive
Mal-A3 (GeneID 35826),DRSC07462,1.89e5,2.24e5,1.60e6,1.41e6,inactive
Mal-A3 (GeneID 35826),DRSC28752,3.83e5,4.06e5,1.14e6,1.19e6,inactive
Poc1 (GeneID 39502),DRSC09713,6.61e5,5.79e5,1.17e6,1.63e6,inactive
Poc1 (GeneID 39502),DRSC28330,3.36e5,5.45e5,8.61e5,1.73e6,inactive
tral (GeneID 39430),DRSC09779,69610,68164,2.14e5,2.51e5,inactive
tral (GeneID 39430),DRSC25049,6.61e5,8.61e5,1.06e6,8.87e5,inactive
CG8607 (GeneID 38805),DRSC11012,88557,1.41e5,7.33e5,1.46e6,inactive
Mi-2 + Su(Tpl),DRSC09640,1.56e5,1.64e5,5.05e5,4.86e5,inactive
e(y)2 (GeneID 45848),DRSC19640,8.29e5,7.79e5,3.35e6,2.89e6,inactive
Osi19 (GeneID 40776),DRSC12569,47541,63538,1.37e6,1.13e6,inactive
Nepl14 (GeneID 42700),DRSC15631,1.51e5,1.71e5,2.16e6,2.11e6,inactive
Whamy (GeneID 41198),DRSC14574,1.26e5,1.56e5,2.52e6,1.52e6,inactive
Whamy (GeneID 41198),DRSC28119,5.41e5,5.75e5,1.59e6,1.34e6,inactive
CG6696 (GeneID 32856),DRSC20004,1.62e5,1.07e5,8.52e5,3.30e5,inactive
CG6696 (GeneID 32856),DRSC25648,7.88e5,8.87e5,7.51e5,9.08e5,inactive
Aatf (GeneID 33943),DRSC02131,1.58e5,1.61e5,1.62e6,1.47e6,inactive
Aatf (GeneID 33943),DRSC29405,6.39e5,7.16e5,1.01e6,1.01e6,inactive
CG15878 (GeneID 38281),DRSC08486,79838,97626,8.20e5,9.28e5,inactive
CG15878 (GeneID 38281),DRSC28875,3.60e5,3.13e5,1.12e6,1.03e6,inactive
Cht9 (GeneID 37392),DRSC04079,9.12e5,9.28e5,2.40e6,2.52e6,inactive
Cht9 (GeneID 37392),DRSC24781,8.32e5,9.56e5,9.50e5,1.08e6,inactive
